PubChem BioAssay AID1259254, NCATS – 2017
Screen: 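Finding genes that stop cells copying their DNA twice in one cycle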 (primary screen). System: human HCT116 colorectal cancer cells. Knock-down reagent: single siRNA against human genes. Timing: 3 days. Measured: 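Nuclei stained with Hoechst and imaged; cell-cycle phase assigned by DNA content; G2 share scaled per plate, non-targeting siRNA 0%, GMNN siRNA 100%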. Scale: G2 robust z-score and G2 cells, % of GMNN control: higher = more G2 cells, more excess DNA replication; raw share of cells in G2: higher = larger share of cells with G2 DNA content. Call rule: 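An siRNA counts as active if its G2 robust z-score lies at least 5 MADs above the screen median; here such calls match roughly 38% of GMNN control or more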.
The deposit covers about 59,000 reagents; this is an unselected part. Of all reagents, about 1,550 (2.6%) are marked active. 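G2 share is only a proxy for re-replication; each gene was hit by three separate siRNAs, and active genes were retested.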 The raw values are shown without normalisation. The numbers tell different reagents against one gene apart. Reagent sequences are not shown. Not stated in the record: the amount of reagent.

gene symbol	reagent no.	G2 robust z-score	G2 cells, % of GMNN control	raw share of cells in G2 (%)	call
STXBP6 (syntaxin binding protein 6)	1	0.155	4.06	5.4	inactive
STXBP6 (syntaxin binding protein 6)	2	-0.309	0.795	4.85	inactive
STXBP6 (syntaxin binding protein 6)	3	-0.239	1.28	3.66	inactive
EXOSC4 (exosome component 4)	1	2.04	17.4	13.8	inactive
EXOSC4 (exosome component 4)	2	8.9	65.6	28.5	active
EXOSC4 (exosome component 4)	3	-0.732	-2.18	2.96	inactive
DEFB124 (defensin beta 124)	1	-0.964	-3.81	1.98	inactive
DEFB124 (defensin beta 124)	2	-0.602	-1.27	3.12	inactive
DEFB124 (defensin beta 124)	3	-0.202	1.55	3.66	inactive
RRM2 (ribonucleotide reductase regulatory subunit M2)	1	-0.801	-2.67	3.26	inactive
RRM2 (ribonucleotide reductase regulatory subunit M2)	2	1.65	14.6	10.2	inactive
RRM2 (ribonucleotide reductase regulatory subunit M2)	3	5.82	43.9	20.1	active
RRM2 (ribonucleotide reductase regulatory subunit M2)	4	0.041	3.26	5.1	inactive
RRM2 (ribonucleotide reductase regulatory subunit M2)	5	0.535	6.73	6.2	inactive
RRM2 (ribonucleotide reductase regulatory subunit M2)	6	-0.648	-1.59	3.55	inactive
LOC145845	1	1.19	11.3	7.62	inactive
LOC145845	2	0.265	4.83	4.4	inactive
LOC145845	3	-0.564	-1	2.72	inactive
EXD2 (exonuclease 3'-5' domain containing 2)	1	-1.52	-7.74	3.04	inactive
EXD2 (exonuclease 3'-5' domain containing 2)	2	-0.134	2.03	5.18	inactive
EXD2 (exonuclease 3'-5' domain containing 2)	3	-0.749	-2.3	3.62	inactive
GNRH2 (gonadotropin releasing hormone 2)	1	1.31	12.2	8.01	inactive
GNRH2 (gonadotropin releasing hormone 2)	2	-0.0938	2.31	6.14	inactive
GNRH2 (gonadotropin releasing hormone 2)	3	1.31	12.2	9.65	inactive
RYR2 (ryanodine receptor 2)	1	0.0348	3.21	6.46	inactive
RYR2 (ryanodine receptor 2)	2	-0.464	-0.296	4.68	inactive
RYR2 (ryanodine receptor 2)	3	-0.688	-1.87	3.64	inactive
RTN2 (reticulon 2)	1	2.58	21.1	14	inactive
RTN2 (reticulon 2)	2	-0.163	1.82	4.94	inactive
RTN2 (reticulon 2)	3	-0.988	-3.98	1.92	inactive
SUSD5 (sushi domain containing 5)	1	3.68	28.9	15.3	inactive
SUSD5 (sushi domain containing 5)	2	0.653	7.56	7.22	inactive
SUSD5 (sushi domain containing 5)	3	-0.383	0.274	3.39	inactive
LRGUK (leucine rich repeats and guanylate kinase domain containing)	1	6.19	46.5	19.9	active
LRGUK (leucine rich repeats and guanylate kinase domain containing)	2	-0.932	-3.59	3.22	inactive
LRGUK (leucine rich repeats and guanylate kinase domain containing)	3	2.96	23.8	10.7	inactive
RPS3AP49 (RPS3A pseudogene 49)	1	0.709	7.96	8.09	inactive
RPS3AP49 (RPS3A pseudogene 49)	2	-0.458	-0.255	3.72	inactive
RPS3AP49 (RPS3A pseudogene 49)	3	-0.151	1.91	4.27	inactive
IFI30 (IFI30 lysosomal thiol reductase)	1	0.467	6.25	8.41	inactive
IFI30 (IFI30 lysosomal thiol reductase)	2	3.42	27	17.1	inactive
IFI30 (IFI30 lysosomal thiol reductase)	3	0.437	6.05	5.8	inactive
TEAD3 (TEA domain transcription factor 3)	1	0.976	9.84	7.36	inactive
TEAD3 (TEA domain transcription factor 3)	2	-0.428	-0.0439	4.83	inactive
TEAD3 (TEA domain transcription factor 3)	3	-0.721	-2.11	2.34	inactive
LRP5 (LDL receptor related protein 5)	1	-0.903	-3.39	2.08	inactive
LRP5 (LDL receptor related protein 5)	2	-0.0866	2.36	6.27	inactive
LRP5 (LDL receptor related protein 5)	3	1.09	10.7	9.69	inactive
SERINC4 (serine incorporator 4)	1	0.397	5.76	5.85	inactive
SERINC4 (serine incorporator 4)	2	0.281	4.94	5.29	inactive
SERINC4 (serine incorporator 4)	3	0.596	7.16	5.55	inactive
SMIM15 (small integral membrane protein 15)	1	-0.418	0.0292	3.65	inactive
SMIM15 (small integral membrane protein 15)	2	-0.166	1.8	3.92	inactive
SMIM15 (small integral membrane protein 15)	3	-0.504	-0.582	2.98	inactive
TMEM170A (transmembrane protein 170A)	1	-0.0767	2.43	5.06	inactive
TMEM170A (transmembrane protein 170A)	2	-1.16	-5.17	1.79	inactive
TMEM170A (transmembrane protein 170A)	3	-0.738	-2.23	1.17	inactive
C3AR1 (complement C3a receptor 1)	1	3.89	30.3	16.7	inactive
C3AR1 (complement C3a receptor 1)	2	0.204	4.4	6.06	inactive
C3AR1 (complement C3a receptor 1)	3	0.817	8.71	5.94	inactive
APLN (apelin)	1	0.562	6.92	7.69	inactive
APLN (apelin)	2	0.244	4.69	6.67	inactive
APLN (apelin)	3	-0.71	-2.03	3.98	inactive
TINAG (tubulointerstitial nephritis antigen)	1	0.84	8.88	10.2	inactive
TINAG (tubulointerstitial nephritis antigen)	2	-0.566	-1.02	3.66	inactive
TINAG (tubulointerstitial nephritis antigen)	3	1.58	14.1	8.87	inactive
RPL29P12 (ribosomal protein L29 pseudogene 12)	1	3.18	25.3	12.9	inactive
RPL29P12 (ribosomal protein L29 pseudogene 12)	2	-0.317	0.738	3.49	inactive
RPL29P12 (ribosomal protein L29 pseudogene 12)	3	0.893	9.25	7.01	inactive
CTNNBL1 (catenin beta like 1)	1	-0.441	-0.132	4.29	inactive
CTNNBL1 (catenin beta like 1)	2	-0.663	-1.7	3.65	inactive
CTNNBL1 (catenin beta like 1)	3	-0.503	-0.569	2.85	inactive
PAFAH1B3	1	-1.44	-7.13	2.51	inactive
PAFAH1B3	2	-0.691	-1.9	2.55	inactive
PAFAH1B3	3	0.476	6.32	7.31	inactive
SNAPC3 (small nuclear RNA activating complex polypeptide 3)	1	0.303	5.1	5.64	inactive
SNAPC3 (small nuclear RNA activating complex polypeptide 3)	2	-0.41	0.083	5.71	inactive
SNAPC3 (small nuclear RNA activating complex polypeptide 3)	3	-0.161	1.83	5.18	inactive
MMP10 (matrix metallopeptidase 10)	1	-0.089	2.34	6.38	inactive
MMP10 (matrix metallopeptidase 10)	2	1.43	13	9.52	inactive
MMP10 (matrix metallopeptidase 10)	3	-0.395	0.191	3.98	inactive
NACC1 (nucleus accumbens associated 1)	1	0.922	9.45	6.34	inactive
NACC1 (nucleus accumbens associated 1)	2	-0.00403	2.94	4.19	inactive
NACC1 (nucleus accumbens associated 1)	3	-1.01	-4.11	2.08	inactive
MTREX (Mtr4 exosome RNA helicase)	1	2.14	18	13.6	inactive
MTREX (Mtr4 exosome RNA helicase)	2	2.55	20.9	11	inactive
MTREX (Mtr4 exosome RNA helicase)	3	1.43	13	8.51	inactive
